# Assay results from PubChem BioAssay (EPA / NIEHS).
# By UniProt entry, the sequences of proteins in these tests, tags left out. Where a name states a change or a piece, a line headed by the entry shows the natural chain unless it says otherwise.
# UniProt P20813: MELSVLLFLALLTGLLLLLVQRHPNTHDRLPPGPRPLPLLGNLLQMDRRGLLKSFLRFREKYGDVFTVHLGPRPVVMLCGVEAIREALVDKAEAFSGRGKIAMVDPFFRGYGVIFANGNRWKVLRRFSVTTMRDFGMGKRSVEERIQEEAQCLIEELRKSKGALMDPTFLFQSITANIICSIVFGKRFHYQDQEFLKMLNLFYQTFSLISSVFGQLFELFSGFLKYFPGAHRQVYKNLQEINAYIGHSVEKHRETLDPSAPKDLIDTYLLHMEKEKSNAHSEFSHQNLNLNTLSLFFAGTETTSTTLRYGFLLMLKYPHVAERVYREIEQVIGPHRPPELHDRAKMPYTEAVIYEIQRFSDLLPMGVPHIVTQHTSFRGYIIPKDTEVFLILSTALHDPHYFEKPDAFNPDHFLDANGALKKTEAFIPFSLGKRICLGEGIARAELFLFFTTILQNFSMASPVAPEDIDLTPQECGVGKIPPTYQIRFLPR
# UniProt P04406: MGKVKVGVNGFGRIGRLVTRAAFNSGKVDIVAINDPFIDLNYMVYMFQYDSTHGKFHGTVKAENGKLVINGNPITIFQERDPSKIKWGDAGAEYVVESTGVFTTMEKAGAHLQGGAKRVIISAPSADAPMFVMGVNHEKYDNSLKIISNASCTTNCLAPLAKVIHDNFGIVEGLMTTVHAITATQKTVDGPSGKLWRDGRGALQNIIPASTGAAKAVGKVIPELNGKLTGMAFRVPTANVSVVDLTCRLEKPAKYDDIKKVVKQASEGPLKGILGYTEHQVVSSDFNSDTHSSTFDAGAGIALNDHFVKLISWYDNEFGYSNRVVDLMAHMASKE
# UniProt P33261, whole entry, looked up: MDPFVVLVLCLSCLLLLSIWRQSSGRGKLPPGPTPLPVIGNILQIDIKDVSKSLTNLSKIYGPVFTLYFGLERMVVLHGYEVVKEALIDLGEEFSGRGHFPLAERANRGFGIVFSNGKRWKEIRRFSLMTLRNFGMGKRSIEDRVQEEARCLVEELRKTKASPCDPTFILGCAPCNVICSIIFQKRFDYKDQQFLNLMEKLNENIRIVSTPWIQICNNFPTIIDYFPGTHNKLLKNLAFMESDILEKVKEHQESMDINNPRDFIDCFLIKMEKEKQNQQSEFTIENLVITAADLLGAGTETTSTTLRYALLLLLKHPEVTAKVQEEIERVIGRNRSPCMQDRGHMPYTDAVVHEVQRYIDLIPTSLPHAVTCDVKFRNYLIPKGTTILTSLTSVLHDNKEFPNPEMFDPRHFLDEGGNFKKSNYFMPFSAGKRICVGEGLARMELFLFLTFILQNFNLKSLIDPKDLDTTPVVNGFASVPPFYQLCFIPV
# The shares of active, inactive and inconclusive entries below differ from those in the screen. For some assays here: Potencies beside an inconclusive call are fits to weak or partial responses and may not hold up. Calls of active or inactive are those of the source. Rule for the calls: active = hit-call score of the fitted dose curve at least 0.9, where 1 is the maximum; inconclusive = response in the unintended direction; inactive = score below 0.9.
# Columns and labels:
# [1] = read-out: xenobiotic metabolism (CYP1A2), CYP1A2 (gene 1544); experiment: CLD_CYP1A2_6hr: CellzDirect (CLD) Gene Expression Assay for xenobiotic metabolism (CYP1A2) at 6 hours (AID 2283663);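 note: potency is for induction meaning a rise in mRNA above DMSO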
# Method in brief: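 Primary human hepatocytes from two donor preparations, dosed daily with multiple concentrations in 0.2% DMSO and harvested at 6 h. CYP1A2 mRNA induction measured by chemiluminescent qNPA, gain of signal fitted against DMSO; cytotoxicity flagged morphologically.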
# [2] = read-out: xenobiotic metabolism (CYP2C9), CYP2C9 (gene 1559); experiment: CLD_CYP2C9_6hr: CellzDirect (CLD) Gene Expression Assay for xenobiotic metabolism (CYP2C9) at 6 hours (AID 2283664)
# Method in brief: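 Primary human hepatocytes dosed daily with test chemicals at multiple concentrations; harvested at 6 h. CYP2C9 mRNA induction measured by qNPA chemiluminescence. Gain of signal fitted against 0.2% DMSO vehicle; cytotoxicity annotated from phase-contrast morphology.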
# [3] = read-out: organic anion transporter (SLCO1B1), SLCO1B1 (gene 10599); experiment: CLD_SLCO1B1_6hr: CellzDirect (CLD) Gene Expression Assay for organic anion transporter (SLCO1B1) at 6 hours (AID 2283668);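 note: active means mRNA induction above DMSO baseline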
# Method in brief: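 Primary human hepatocytes dosed daily with test chemicals (multiple concentrations) in 0.2% DMSO vehicle; harvested at 6 h. SLCO1B1 mRNA quantified by qNPA chemiluminescence, fitted as gain-of-signal versus DMSO; cytotoxicity from phase-contrast morphology flagged alongside.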
# [4] = read-out: Cytochrome P450 2B6 (Homo sapiens) (UniProt P20813); experiment: CLD_CYP2B6_6hr: CellzDirect (CLD) Gene Expression Assay for xenobiotic metabolism (CYP2B6) at 6 hours (AID 2283677);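 note: actives raise CYP2B6 transcript above DMSO baseline so AC50 marks an inducer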
# Method in brief: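 Primary human hepatocytes dosed with chemicals at multiple concentrations, vehicle 0.2% DMSO; CYP2B6 mRNA induction measured 6 h after dosing by quantitative nuclease protection assay with chemiluminescence, gain of signal fitted relative to DMSO.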
# [5] = read-out: HMG-CoA synthase (HMGCS2), HMGCS2 (gene 3158); experiment: CLD_HMGCS2_6hr: CellzDirect (CLD) Gene Expression Assay for HMG-CoA synthase (HMGCS2) at 6 hours (AID 2283682);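 note: actives raise HMGCS2 transcript above the 0.2% DMSO vehicle baseline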
# Method in brief: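 Primary human hepatocytes dosed daily with fresh chemical, 0.2% DMSO vehicle; HMGCS2 mRNA measured at 6 h by qNPA chemiluminescence. Gain of signal fitted against DMSO; cytotoxicity flagged from phase-contrast morphology.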
# [6] = Tanguay_ZF_120hpf_TR_legacy: (Legacy) Oregon State University Tanguay Lab 120 Hour Post-fertilization zebrafish Assay for Touch Response (AID 2283667)
# Method in brief: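 Tropical 5D wild-type zebrafish embryos statically exposed to 120 hpf at 28°C, sealed and dark-covered, 0.64% DMSO final; touch response scored as present/absent by brightfield microscopy at 120 hpf. Trimethyltin chloride 5 uM positive control; dead embryos not scored.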
# [7] = CLD_ACTIN_24hr: CellzDirect (CLD) Gene Expression Assay for Baseline Control (Actin) at 24 hours (AID 2283670)
# Method in brief: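 Primary human hepatocytes dosed over multiple concentrations with 0.2% DMSO vehicle; actin mRNA measured at 24 h by qNPA chemiluminescence. Background control endpoint, fitted as gain of signal versus DMSO.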
# [8] = read-out: glucuronosyltransferase (UGT1A1), UGT1A1 (gene 54658); experiment: CLD_UGT1A1_6hr: CellzDirect (CLD) Gene Expression Assay for glucuronosyltransferase (UGT1A1) at 6 hours (AID 2283672)
# Method in brief: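 Primary human hepatocytes from two donor preparations, dosed with fresh solutions in 0.2% DMSO, harvested at 6 h. UGT1A1 mRNA measured by qNPA chemiluminescence; induction fitted upward versus DMSO.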
# [9] = read-out: xenobiotic metabolism (CYP1A1), CYP1A1 (gene 1543); experiment: CLD_CYP1A1_24hr: CellzDirect (CLD) Gene Expression Assay for xenobiotic metabolism (CYP1A1) at 24 hours (AID 2283673);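 note: CYP1A1 mRNA level by quantitative nuclease protection with chemiluminescence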
# Method in brief: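 Primary human hepatocytes dosed daily with fresh solutions in 0.2% DMSO vehicle. mRNA measured at 24 h by quantitative nuclease protection assay with chemiluminescence; gain-of-signal fit versus DMSO, with morphology-based cytotoxicity flags.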
# [10] = read-out: ABC Transporter (ABCB11), ABCB11 (gene 8647); experiment: CLD_ABCB11_6hr: CellzDirect (CLD) Gene Expression Assay for ABC Transporter (ABCB11) at 6 hours (AID 2283675);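 note: hits raise ABCB11 mRNA level so AC50 marks induction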
# Method in brief: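 Human primary hepatocytes (two donor preparations) given fresh chemical daily at multiple concentrations, vehicle 0.2% DMSO. ABCB11 mRNA induction measured 6 h after dosing by qNPA chemiluminescence versus DMSO; cytotoxicity annotated from morphology.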
# [11] = read-out: Glyceraldehyde-3-phosphate dehydrogenase (Homo sapiens) (UniProt P04406); experiment: CLD_GAPDH_6hr: CellzDirect (CLD) Gene Expression Assay for Baseline Control (Glyceraldehyde 3-phosphate dehydrogenase) at 6 hours (AID 2283681)
# Method in brief: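 Primary human hepatocytes from two donor preparations, dosed at multiple concentrations with 0.2% DMSO vehicle; GAPDH mRNA measured 6 h after dosing by chemiluminescent quantitative nuclease protection assay (qNPA) on denatured lysates. Serves as background control; cytotoxicity annotated by morphology.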
# [12] = read-out: sulfotransferase (SULT2A), SULT2A1 (gene 6822); experiment: CLD_SULT2A_6hr: CellzDirect (CLD) Gene Expression Assay for sulfotransferase (SULT2A) at 6 hours (AID 2283669);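 note: hits raise transcript level above the DMSO vehicle baseline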
# Method in brief: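 Primary human hepatocytes from two donor preparations were dosed daily with chemicals or 0.2% DMSO and harvested at 6 h. Transcript induction read by qNPA chemiluminescence, fitted for gain of signal relative to DMSO; morphology-based cytotoxicity annotated.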
# [13] = read-out: Cytochrome P450 2C19 (Homo sapiens) (UniProt P33261); experiment: CLD_CYP2C19_6hr: CellzDirect (CLD) Gene Expression Assay for xenobiotic metabolism (CYP2C19) at 6 hours (AID 2283678)
# Method in brief: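 Primary human hepatocytes from two donor preparations were dosed daily, with 0.2% DMSO as vehicle, and harvested 6 h after dosing. CYP2C19 mRNA induction was measured by qNPA chemiluminescence and fitted as gain of signal against DMSO.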
# [14] = read-out: xenobiotic metabolism (CYP1A2), CYP1A2 (gene 1544); experiment: CLD_CYP1A2_24hr: CellzDirect (CLD) Gene Expression Assay for xenobiotic metabolism (CYP1A2) at 24 hours (AID 2283683)
# Method in brief: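 Primary human hepatocytes from two donor preparations dosed daily with multiple concentrations of chemical, 0.2% DMSO vehicle. CYP1A2 mRNA at 24 h quantified by qNPA chemiluminescence; gain of signal analyzed relative to DMSO. Cytotoxicity flagged by phase-contrast morphology.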
# [15] = read-out: ABC Transporter (ABCB1), ABCB1 (gene 5243); experiment: CLD_ABCB1_24hr: CellzDirect (CLD) Gene Expression Assay for ABC Transporter (ABCB1) at 24 hours (AID 2283684)
# Method in brief: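 Primary human hepatocytes, two donor preparations, dosed daily with fresh solutions; vehicle 0.2% DMSO; harvested at 24 h. ABCB1 mRNA measured by quantitative nuclease protection assay (chemiluminescence); morphology-based cytotoxicity annotated.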
compound,measurement,setting,value
CC(C)(C)C(=O)C(Oc1ccc(Cl)cc1)n1cncn1 (configuration not stated),AC50,[1],active: 12.4 µM
same,AC50,[2],inconclusive: 3.97 µM
same,AC50,[3],inconclusive: 2.33 µM
same,AC50,[4],active: 3.95 µM
same,AC50,[5],inconclusive: 0.094 µM
CCSC(=O)N1CCCCCC1,AC50,[1],inconclusive: 0.000496 µM
same,AC50,[2],inconclusive: 20 µM
same,AC50,[6],inconclusive: 179 µM
same,AC50,[3],inconclusive: 20 µM
same,outcome,[7],inactive
same,outcome,[8],inactive
same,outcome,[9],inactive
same,AC50,[10],inconclusive: 20 µM
same,AC50,[11],inconclusive: 20 µM
COc1ccc(C(=CC(=O)N2CCOCC2)c2ccc(Cl)cc2)cc1OC,AC50,[1],inconclusive: 3.5e-05 µM
same,AC50,[2],inconclusive: 20 µM
same,AC50,[12],inconclusive: 0.0175 µM
same,AC50,[7],inconclusive: 0.36 µM
same,AC50,[10],inconclusive: 3.85 µM
same,AC50,[13],inconclusive: 37.3 µM
same,AC50,[11],inconclusive: 20 µM
same,AC50,[5],inconclusive: 5.77 µM
same,AC50,[14],inconclusive: 0.0156 µM
O=C1C2CC=CCC2C(=O)N1SC(Cl)(Cl)Cl (configuration not stated),AC50,[1],inconclusive: 20 µM
same,outcome,[2],inactive
same,AC50,[3],inconclusive: 0.0064 µM
same,AC50,[12],inconclusive: 20 µM
same,AC50,[8],inconclusive: 20 µM
same,AC50,[4],inconclusive: 20 µM
same,AC50,[13],inconclusive: 20 µM
same,AC50,[5],inconclusive: 20 µM
same,outcome,[15],inactive

# Two entries from above, as tab-separated lines:
compound	measurement	setting	value
COc1ccc(C(=CC(=O)N2CCOCC2)c2ccc(Cl)cc2)cc1OC	AC50	[7]	inconclusive: 0.36 µM
same	AC50	[10]	inconclusive: 3.85 µM
